# Cleaved PARP in drug-treated melanoma cells

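The test systems are human melanoma cell lines, treated with two drugs together for 72 h and then stained and imaged. Values are the share of nuclei positive for cleaved PARP as a percentage of the same share in the DMSO control: 100 is the control level, higher means more apoptosis. Concentrations were fixed for each drug; these are the higher of two levels. These are primary screening values without error estimates. The marker varies much from line to line, for technical or biological reasons.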 Only some of the drugs and lines screened are listed, without regard to their results.

Compounds and concentrations:
temozolomide: Cn1nnc2c(C(N)=O)ncn2c1=O at 10 µM
SU6656: CN(C)S(=O)(=O)c1ccc2c(c1)/C(=C/c1cc3c([nH]1)CCCC3)C(=O)N2 at 2 µM
IMD-0354: O=C(Nc1cc(C(F)(F)F)cc(C(F)(F)F)c1)c1cc(Cl)ccc1O at 0.08 µM
FH535: Cc1cc([N+](=O)[O-])ccc1NS(=O)(=O)c1cc(Cl)ccc1Cl at 5 µM
tipifarnib: Cn1cncc1[C@@](N)(c1ccc(Cl)cc1)c1ccc2c(c1)c(-c1cccc(Cl)c1)cc(=O)n2C at 0.05 µM
vincristine: CC[C@]1(O)C[C@H]2CN(CCc3c([nH]c4ccccc34)[C@@](C(=O)OC)(c3cc4c(cc3OC)N(C=O)[C@H]3[C@@](O)(C(=O)OC)[C@H](OC(C)=O)[C@]5(CC)C=CCN6CC[C@]43[C@@H]65)C2)C1 at 0.0005 µM
NVP-TAE684: COc1cc(N2CCC(N3CCN(C)CC3)CC2)ccc1Nc1ncc(Cl)c(Nc2ccccc2S(=O)(=O)C(C)C)n1 at 0.4 µM
GW2580: COc1ccc(COc2ccc(Cc3cnc(N)nc3N)cc2OC)cc1 at 5 µM
PD173074: CCN(CC)CCCCNc1ncc2cc(-c3cc(OC)cc(OC)c3)c(NC(=O)NC(C)(C)C)nc2n1 at 0.5 µM
MK-2206: NC1(c2ccc(-c3nc4ccn5c(=O)[nH]nc5c4cc3-c3ccccc3)cc2)CCC1 at 2 µM
PF-04217903: OCCn1cc(-c2cnc3nnn(Cc4ccc5ncccc5c4)c3n2)cn1 at 5 µM
AS-252424: O=C1NC(=O)/C(=C/c2ccc(-c3ccc(F)cc3O)o2)S1 at 5 µM
KU-55933: O=c1cc(-c2cccc3c2Sc2ccccc2S3)oc(N2CCOCC2)c1 at 5 µM
GW0742: Cc1cc(SCc2sc(-c3ccc(C(F)(F)F)c(F)c3)nc2C)ccc1OCC(=O)O at 10 µM

Drugs: AS-252424 and GW0742
UACC-257: 26.4
WM115: 384
G-361: 109
SK-MEL-28: 73.2

Drugs: KU-55933 and GW0742
UACC-257: 30.1
WM115: 56.7
G-361: 187
SK-MEL-28: 53.4

Drugs: PF-04217903 and GW2580
UACC-257: 86.7
WM115: 87.6
G-361: 72.1
SK-MEL-28: 135

Drugs: MK-2206 and temozolomide
UACC-257: 127
WM115: 265
G-361: 71.3
SK-MEL-28: 160

Drugs: MK-2206 and KU-55933
UACC-257: 30.1
WM115: 121
G-361: 163
SK-MEL-28: 249

Drugs: AS-252424 and vincristine
UACC-257: 170
WM115: 311
G-361: 81.4
SK-MEL-28: 452

Drugs: GW0742 and PD173074
UACC-257: 18.9
WM115: 56.9
G-361: 29.7
SK-MEL-28: 66.2

Drugs: AS-252424 and KU-55933
UACC-257: 26.4
WM115: 85.3
G-361: 58.7
SK-MEL-28: 117

Drugs: KU-55933 and PF-04217903
UACC-257: 23.1
WM115: 57.4
G-361: 57.5
SK-MEL-28: 121

Drugs: IMD-0354 and AS-252424
UACC-257: 103
WM115: 70.5
G-361: 186
SK-MEL-28: 53.2

Drugs: temozolomide and FH535
UACC-257: 216
WM115: 125
G-361: 411
SK-MEL-28: 204

Drugs: PD173074 and SU6656
UACC-257: 19.6
WM115: 114
G-361: 101
SK-MEL-28: 146

Drugs: MK-2206 and vincristine
UACC-257: 100
WM115: 3850
G-361: 157
SK-MEL-28: 122

Drugs: FH535 and vincristine
UACC-257: 275
WM115: 578
G-361: 513
SK-MEL-28: 228

Drugs: SU6656 and IMD-0354
UACC-257: 58.1
WM115: 258
G-361: 223
SK-MEL-28: 156

Drugs: PD173074 and vincristine
UACC-257: 140
WM115: 90.5
G-361: 56.6
SK-MEL-28: 92.1

Drugs: temozolomide and GW2580
UACC-257: 67.5
WM115: 136
G-361: 118
SK-MEL-28: 555

Drugs: SU6656 and FH535
UACC-257: 29.0
WM115: 72.9
G-361: 206
SK-MEL-28: 285

Drugs: FH535 and KU-55933
UACC-257: 169
WM115: 62.6
G-361: 193
SK-MEL-28: 240

Drugs: SU6656 and vincristine
UACC-257: 60.8
WM115: 3060
G-361: 244
SK-MEL-28: 209

Drugs: tipifarnib and temozolomide
UACC-257: 129
WM115: 50.2
G-361: 139
SK-MEL-28: 81.0

Drugs: AS-252424 and GW2580
UACC-257: 40.2
WM115: 104
G-361: 154
SK-MEL-28: 88.7

Drugs: vincristine and temozolomide
UACC-257: 37.4
WM115: 292
G-361: 52.0
SK-MEL-28: 341

Drugs: PF-04217903 and vincristine
UACC-257: 62.9
WM115: 106
G-361: 50.3
SK-MEL-28: 110

Drugs: GW2580 and NVP-TAE684
UACC-257: 66.9
WM115: 126
G-361: 106
SK-MEL-28: 202

Drugs: FH535 and MK-2206
UACC-257: 249
WM115: 230
G-361: 451
SK-MEL-28: 519

Drugs: IMD-0354 and vincristine
UACC-257: 28.4
WM115: 280
G-361: 111
SK-MEL-28: 210

Drugs: PD173074 and NVP-TAE684
UACC-257: 22.5
WM115: 65.9
G-361: 105
SK-MEL-28: 311

Drugs: vincristine and NVP-TAE684
UACC-257: 43.4
WM115: 814
G-361: 143
SK-MEL-28: 204

Drugs: GW0742 and IMD-0354
UACC-257: 150
WM115: 30.6
G-361: 172
SK-MEL-28: 86.0

Drugs: PF-04217903 and FH535
UACC-257: 69.6
WM115: 125
G-361: 389
SK-MEL-28: 235

Drugs: PD173074 and MK-2206
UACC-257: 29.6
WM115: 64.5
G-361: 87.2
SK-MEL-28: 52.5

Drugs: PF-04217903 and temozolomide
UACC-257: 109
WM115: 85.1
G-361: 95.8
SK-MEL-28: 498

Drugs: SU6656 and GW0742
UACC-257: 17.5
WM115: 102
G-361: 109
SK-MEL-28: 144

Drugs: SU6656 and MK-2206
UACC-257: 39.5
WM115: 357
G-361: 112
SK-MEL-28: 153

Once more, the final 3:

Drugs,UACC-257,WM115,G-361,SK-MEL-28
PF-04217903 and temozolomide,109,85.1,95.8,498
SU6656 and GW0742,17.5,102,109,144
SU6656 and MK-2206,39.5,357,112,153

Data from the primary screen of doi:10.1371/journal.pone.0140310, rounded.